# Results published in PMC6762143.
# The chains behind the UniProt entries cited, without tags or fusion partners. Where a name states a change or a piece, a line headed by the entry shows the natural chain unless it says otherwise.
# UniProt P00560: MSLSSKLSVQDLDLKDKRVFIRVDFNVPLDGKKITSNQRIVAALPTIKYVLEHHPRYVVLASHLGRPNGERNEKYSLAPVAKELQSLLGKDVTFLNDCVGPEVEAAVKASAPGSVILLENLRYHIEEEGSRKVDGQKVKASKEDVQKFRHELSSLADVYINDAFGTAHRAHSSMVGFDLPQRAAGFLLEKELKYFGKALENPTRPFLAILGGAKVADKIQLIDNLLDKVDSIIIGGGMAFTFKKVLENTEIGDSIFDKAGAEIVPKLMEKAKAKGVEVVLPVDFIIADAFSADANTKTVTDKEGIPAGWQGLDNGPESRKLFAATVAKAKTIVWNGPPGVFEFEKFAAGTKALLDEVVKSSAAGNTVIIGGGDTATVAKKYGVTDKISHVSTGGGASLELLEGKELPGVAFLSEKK
# UniProt P0DMV8: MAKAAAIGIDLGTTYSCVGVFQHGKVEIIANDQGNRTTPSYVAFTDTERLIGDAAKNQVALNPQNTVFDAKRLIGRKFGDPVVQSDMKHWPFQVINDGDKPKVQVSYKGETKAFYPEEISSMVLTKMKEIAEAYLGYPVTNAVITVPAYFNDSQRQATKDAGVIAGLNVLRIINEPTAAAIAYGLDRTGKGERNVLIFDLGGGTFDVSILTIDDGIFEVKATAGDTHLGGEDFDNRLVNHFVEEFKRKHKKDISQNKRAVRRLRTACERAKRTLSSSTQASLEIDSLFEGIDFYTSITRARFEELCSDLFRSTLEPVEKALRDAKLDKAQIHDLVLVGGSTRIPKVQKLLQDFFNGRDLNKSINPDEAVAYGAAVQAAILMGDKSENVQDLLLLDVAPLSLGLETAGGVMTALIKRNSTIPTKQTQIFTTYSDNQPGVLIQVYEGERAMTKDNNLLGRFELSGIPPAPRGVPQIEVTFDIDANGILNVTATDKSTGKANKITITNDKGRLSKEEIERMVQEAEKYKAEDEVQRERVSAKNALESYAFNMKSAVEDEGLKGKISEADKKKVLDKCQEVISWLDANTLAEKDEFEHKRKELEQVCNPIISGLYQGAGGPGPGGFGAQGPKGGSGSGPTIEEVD
# Legend:
# [1] = target: ePGK3 (PGK mutant labeled by mEGFP at the N-terminus) (yeast) (UniProt P00560); test: FRET or BRET; in vitro thermal scan in a fluorimeter; 1:1 mHsp70:ePGK with 300 mg/mL Ficoll70, 0.6 mg/mL U-2 OS cell lysate, ATP and Hsp40; both purified
# [2] = target: ePGK3 (PGK mutant labeled by mEGFP at the N-terminus) (yeast) (UniProt P00560); test: FRET or BRET; in vitro thermal scan in a fluorimeter; 5:1, 5 μM mHsp70 or mHsp70K71M with 1 μM ePGK; K1 buffer, 10 mM DTT, 2 mM ATP, ATP regenerating mix; also with 10 μM Hsp40 and with 10 μM Hsp40 and 300 mg/mL Ficoll70; both purified
# [3] = target: ePGK0 (PGK mutant labeled by mEGFP at the N-terminus) (yeast) (UniProt P00560); test: as above
# [4] = target: ePGK3 (PGK mutant labeled by mEGFP at the N-terminus) (yeast) (UniProt P00560); test: FRET or BRET; in vitro thermal scan in a fluorimeter; 1:1 mHsp70:ePGK with 300 mg/mL Ficoll70, ATP and Hsp40, without cell lysate; both purified
# [5] = target: ePGK3 (PGK mutant labeled by mEGFP at the N-terminus) (yeast) (UniProt P00560); test: FRET or BRET; in vitro thermal scan in a fluorimeter; 1:1 (1 μM mHsp70 with 1 μM ePGK) or 1:5 mHsp70:ePGK; K1 buffer, 10 mM DTT, 2 mM ATP, ATP regenerating mix; no crowder; both purified
# [6] = target: ePGK0 (PGK mutant labeled by mEGFP at the N-terminus) (yeast) (UniProt P00560); test: as above
binding [1],binding [2],binding [3],binding [4],Substance,binding [5],binding [6]
no binding,no binding,no binding,no binding,mHsp70 (Hsp70 labeled by the red acceptor mCherry at the C-terminus) (from UniProt P0DMV8 1-641),no binding (tested: 1 μM ePGK with 1 μM mHsp70 (1:1)),no binding (tested: 1 μM ePGK with 1 μM mHsp70 (1:1))
,no binding,,,mHsp70K71M (ATPase activity-deficient K71M mutant of mHsp70) (from UniProt P0DMV8 1-641),,

# These are yes or no findings as the source states them, for the method shown.
